From PMC9249628

Sequences of proteins named here, by UniProt entry; tags and fusion partners are left off. A change or cut given only in a name is not applied to a line headed by its entry.
UniProt P15941: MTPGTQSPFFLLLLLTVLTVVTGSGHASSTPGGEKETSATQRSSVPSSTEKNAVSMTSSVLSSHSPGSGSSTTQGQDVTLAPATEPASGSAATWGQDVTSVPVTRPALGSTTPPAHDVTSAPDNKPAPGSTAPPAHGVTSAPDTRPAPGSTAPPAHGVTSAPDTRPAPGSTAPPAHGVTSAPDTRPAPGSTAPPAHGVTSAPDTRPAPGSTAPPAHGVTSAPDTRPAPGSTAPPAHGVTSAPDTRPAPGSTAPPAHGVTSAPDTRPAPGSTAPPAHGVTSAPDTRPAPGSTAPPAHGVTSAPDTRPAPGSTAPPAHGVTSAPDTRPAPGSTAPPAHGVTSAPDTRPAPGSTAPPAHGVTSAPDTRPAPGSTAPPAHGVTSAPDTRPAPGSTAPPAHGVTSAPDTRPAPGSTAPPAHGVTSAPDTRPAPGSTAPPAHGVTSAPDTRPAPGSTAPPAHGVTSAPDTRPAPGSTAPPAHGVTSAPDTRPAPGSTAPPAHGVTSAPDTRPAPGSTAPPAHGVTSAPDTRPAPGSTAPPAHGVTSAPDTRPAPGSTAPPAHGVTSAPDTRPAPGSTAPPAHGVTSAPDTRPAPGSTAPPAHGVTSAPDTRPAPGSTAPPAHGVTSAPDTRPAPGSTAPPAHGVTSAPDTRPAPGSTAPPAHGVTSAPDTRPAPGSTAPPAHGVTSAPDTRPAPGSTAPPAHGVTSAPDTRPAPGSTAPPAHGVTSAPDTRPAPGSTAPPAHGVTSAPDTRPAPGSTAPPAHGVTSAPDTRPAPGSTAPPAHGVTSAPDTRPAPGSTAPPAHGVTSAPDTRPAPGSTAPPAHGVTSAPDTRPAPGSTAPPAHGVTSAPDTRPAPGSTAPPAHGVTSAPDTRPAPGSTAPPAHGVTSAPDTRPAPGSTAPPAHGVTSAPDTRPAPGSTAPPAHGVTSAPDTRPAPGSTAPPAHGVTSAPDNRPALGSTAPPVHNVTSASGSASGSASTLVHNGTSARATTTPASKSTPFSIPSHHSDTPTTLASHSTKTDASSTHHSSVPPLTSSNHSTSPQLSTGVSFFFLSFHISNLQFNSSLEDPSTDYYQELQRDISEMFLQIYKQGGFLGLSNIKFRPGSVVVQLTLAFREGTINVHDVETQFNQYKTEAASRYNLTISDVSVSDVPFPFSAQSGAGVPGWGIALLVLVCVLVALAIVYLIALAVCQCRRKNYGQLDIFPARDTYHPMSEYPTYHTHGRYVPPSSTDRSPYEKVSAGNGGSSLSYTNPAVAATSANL

Legend:
[1] = target: MUC1-C (MUC1 C-terminal subunit) (human (endogenous in WaGa)); test: co-IP; DNase-treated nuclear lysates of WaGa cells precipitated with anti-MUC1-C (or control IgG) at 4 °C overnight, Dynabeads Protein G; washes with 20 mM Tris-HCl pH 8.0, 0.5% NP40, 150 mM NaCl; immunoblot
[2] = target: GST-MUC1-CD (FL; aa 1-72) (UniProt P15941); test: pull-down; GST or GST-MUC1-CD bound to glutathione beads incubated with equimolar purified MYCL; adsorbates immunoblotted with anti-MYCL; both purified

binding [1]	binding [2]	Binder
binds		MYCL (L-MYC) (protein, UniProt P12524 1-364) MDYDSYQHYFYDYDCGEDFYRSTAPSEDIWKKFELVPSPPTSPPWGLGPGAGDPAPGIGPPEPWPGGCTGDEAESRGHSKGWGRNYASIIRRDCMWSGFSARERLERAVSDRLAPGAPRGNPPKASAAPDCTPSLEAGNPAPAAPCPLGEPKTQACSGSESPSDSENEEIDVVTVEKRQSLGIRKPVTITVRADPLDPCMKHFHISIHQQQHNYAARFPPESCSQEEASERGPQEEVLERDAAGEKEDEEDEEIVSPPPVESEAAQSCHPKPVSSDTEDVTKRKNHNFLERKRRNDLRSRFLALRDQVPTLASCSKAPKVVILSKALEYLQALVGAEKRMATEKRQLRCRQQQLQKRIAYLTGY
	binds	purified full-length MYCL (aa 1-364) (protein, UniProt P12524 1-364) MDYDSYQHYFYDYDCGEDFYRSTAPSEDIWKKFELVPSPPTSPPWGLGPGAGDPAPGIGPPEPWPGGCTGDEAESRGHSKGWGRNYASIIRRDCMWSGFSARERLERAVSDRLAPGAPRGNPPKASAAPDCTPSLEAGNPAPAAPCPLGEPKTQACSGSESPSDSENEEIDVVTVEKRQSLGIRKPVTITVRADPLDPCMKHFHISIHQQQHNYAARFPPESCSQEEASERGPQEEVLERDAAGEKEDEEDEEIVSPPPVESEAAQSCHPKPVSSDTEDVTKRKNHNFLERKRRNDLRSRFLALRDQVPTLASCSKAPKVVILSKALEYLQALVGAEKRMATEKRQLRCRQQQLQKRIAYLTGY

No constants are given. Whether binding was seen depends on the method and setting. Binding can be weak; no strength is given. Where a sequence is shown, tags or fusion partners need not be part of it. For some assays here: Binding seen in cells or lysates may run through a third protein.
